This note sets out measurements from patent US10676518B1, “A4B2 nicotinic acetylcholine receptors with reduced or increased nicotine sensitivity and transgenic mouse model for the same” (University of Puerto Rico, priority 2015, dated 2020).

The series has as its system α4β2 nAChRs expressed in Xenopus laevis oocytes. Briefly: 125I-labeled epibatidine binding assay for membrane expression of nAChR in oocytes. Also noted: species or system Rattus norvegicus. Particulars: 50 pM 125I-labeled epibatidine, 2 h.
As to “α4S469Aβ2: rat α4β2 nAChR, α4 subunit point mutation S469A, CKII putative phosphorylation site”, the “receptor expression compared with WT” value is “significant decreases in receptor expression”. For “α4S438Dβ2: rat α4β2 nAChR, α4 subunit point mutation S438D, CKII putative phosphorylation site” the value was “significant decreases in receptor expression”. For “α4S438Aβ2: rat α4β2 nAChR, α4 subunit point mutation S438A, CKII putative phosphorylation site” the value was “did not exhibit changes in expression”. On to “α4S469Dβ2: rat α4β2 nAChR, α4 subunit point mutation S469D, CKII putative phosphorylation site”, for which the “receptor expression compared with WT” value is on record as “no change in receptor expression”.
